Test results: the supplement of paper PMC10849652
The list shows a part of the results.

Sequences of proteins named here, by UniProt entry; tags and fusion partners are left off. A change or cut given only in a name is not applied to a line headed by its entry.
UniProt Q92538, whole entry, looked up: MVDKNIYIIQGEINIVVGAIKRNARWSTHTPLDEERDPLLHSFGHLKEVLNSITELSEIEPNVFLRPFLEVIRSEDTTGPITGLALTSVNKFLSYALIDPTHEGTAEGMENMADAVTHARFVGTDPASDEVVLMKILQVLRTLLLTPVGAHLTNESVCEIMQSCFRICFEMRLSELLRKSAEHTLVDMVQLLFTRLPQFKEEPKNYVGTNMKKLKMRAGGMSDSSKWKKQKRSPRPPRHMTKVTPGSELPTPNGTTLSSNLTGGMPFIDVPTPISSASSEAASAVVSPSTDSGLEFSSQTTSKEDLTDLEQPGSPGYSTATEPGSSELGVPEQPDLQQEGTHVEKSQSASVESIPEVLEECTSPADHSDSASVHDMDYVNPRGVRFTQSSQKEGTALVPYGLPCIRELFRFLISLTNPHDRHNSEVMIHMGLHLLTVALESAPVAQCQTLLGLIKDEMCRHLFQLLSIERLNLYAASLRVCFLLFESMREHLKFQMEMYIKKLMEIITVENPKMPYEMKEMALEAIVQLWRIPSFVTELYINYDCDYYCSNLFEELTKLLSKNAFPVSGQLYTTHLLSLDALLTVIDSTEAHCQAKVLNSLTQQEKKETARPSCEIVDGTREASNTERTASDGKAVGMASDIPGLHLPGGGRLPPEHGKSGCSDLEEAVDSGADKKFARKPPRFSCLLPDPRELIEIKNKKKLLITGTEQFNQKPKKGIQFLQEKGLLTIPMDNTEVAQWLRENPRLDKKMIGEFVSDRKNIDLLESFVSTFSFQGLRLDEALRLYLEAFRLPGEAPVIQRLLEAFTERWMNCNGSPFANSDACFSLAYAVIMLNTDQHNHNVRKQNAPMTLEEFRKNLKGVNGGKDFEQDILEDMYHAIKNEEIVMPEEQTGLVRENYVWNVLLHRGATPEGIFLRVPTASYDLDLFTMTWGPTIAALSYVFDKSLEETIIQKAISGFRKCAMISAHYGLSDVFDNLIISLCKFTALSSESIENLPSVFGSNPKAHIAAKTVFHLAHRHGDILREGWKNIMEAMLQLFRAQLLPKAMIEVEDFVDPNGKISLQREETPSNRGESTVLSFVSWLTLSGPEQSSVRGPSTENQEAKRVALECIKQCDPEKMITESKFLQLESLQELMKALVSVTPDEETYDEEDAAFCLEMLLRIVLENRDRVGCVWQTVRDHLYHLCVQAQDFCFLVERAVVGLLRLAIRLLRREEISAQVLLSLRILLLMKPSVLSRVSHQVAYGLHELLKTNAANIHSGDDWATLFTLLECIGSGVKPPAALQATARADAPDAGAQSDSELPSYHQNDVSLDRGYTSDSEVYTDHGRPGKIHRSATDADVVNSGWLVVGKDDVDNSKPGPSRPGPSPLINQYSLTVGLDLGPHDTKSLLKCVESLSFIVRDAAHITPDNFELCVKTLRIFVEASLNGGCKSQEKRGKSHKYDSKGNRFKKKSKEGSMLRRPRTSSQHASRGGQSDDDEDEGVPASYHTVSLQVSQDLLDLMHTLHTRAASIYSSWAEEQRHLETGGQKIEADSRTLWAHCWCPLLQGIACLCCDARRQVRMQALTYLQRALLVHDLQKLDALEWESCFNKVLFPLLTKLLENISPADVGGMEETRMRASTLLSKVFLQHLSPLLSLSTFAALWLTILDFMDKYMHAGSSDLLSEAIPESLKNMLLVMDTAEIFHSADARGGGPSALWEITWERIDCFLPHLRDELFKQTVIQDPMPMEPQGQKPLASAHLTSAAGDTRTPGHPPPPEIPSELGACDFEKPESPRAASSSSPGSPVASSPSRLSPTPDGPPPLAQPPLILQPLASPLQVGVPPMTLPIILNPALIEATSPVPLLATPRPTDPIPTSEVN
UniProt Q6ZNW5: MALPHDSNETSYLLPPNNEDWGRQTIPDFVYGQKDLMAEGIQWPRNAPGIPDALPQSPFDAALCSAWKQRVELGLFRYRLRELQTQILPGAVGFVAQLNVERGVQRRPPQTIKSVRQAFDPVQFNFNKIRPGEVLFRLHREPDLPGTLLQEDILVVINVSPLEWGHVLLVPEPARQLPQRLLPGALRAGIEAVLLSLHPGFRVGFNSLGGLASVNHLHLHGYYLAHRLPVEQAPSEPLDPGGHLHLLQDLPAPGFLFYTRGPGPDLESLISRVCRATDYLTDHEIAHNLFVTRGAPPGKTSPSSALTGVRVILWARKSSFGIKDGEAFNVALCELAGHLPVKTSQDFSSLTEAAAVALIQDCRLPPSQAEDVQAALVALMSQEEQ
UniProt Q8TEQ6: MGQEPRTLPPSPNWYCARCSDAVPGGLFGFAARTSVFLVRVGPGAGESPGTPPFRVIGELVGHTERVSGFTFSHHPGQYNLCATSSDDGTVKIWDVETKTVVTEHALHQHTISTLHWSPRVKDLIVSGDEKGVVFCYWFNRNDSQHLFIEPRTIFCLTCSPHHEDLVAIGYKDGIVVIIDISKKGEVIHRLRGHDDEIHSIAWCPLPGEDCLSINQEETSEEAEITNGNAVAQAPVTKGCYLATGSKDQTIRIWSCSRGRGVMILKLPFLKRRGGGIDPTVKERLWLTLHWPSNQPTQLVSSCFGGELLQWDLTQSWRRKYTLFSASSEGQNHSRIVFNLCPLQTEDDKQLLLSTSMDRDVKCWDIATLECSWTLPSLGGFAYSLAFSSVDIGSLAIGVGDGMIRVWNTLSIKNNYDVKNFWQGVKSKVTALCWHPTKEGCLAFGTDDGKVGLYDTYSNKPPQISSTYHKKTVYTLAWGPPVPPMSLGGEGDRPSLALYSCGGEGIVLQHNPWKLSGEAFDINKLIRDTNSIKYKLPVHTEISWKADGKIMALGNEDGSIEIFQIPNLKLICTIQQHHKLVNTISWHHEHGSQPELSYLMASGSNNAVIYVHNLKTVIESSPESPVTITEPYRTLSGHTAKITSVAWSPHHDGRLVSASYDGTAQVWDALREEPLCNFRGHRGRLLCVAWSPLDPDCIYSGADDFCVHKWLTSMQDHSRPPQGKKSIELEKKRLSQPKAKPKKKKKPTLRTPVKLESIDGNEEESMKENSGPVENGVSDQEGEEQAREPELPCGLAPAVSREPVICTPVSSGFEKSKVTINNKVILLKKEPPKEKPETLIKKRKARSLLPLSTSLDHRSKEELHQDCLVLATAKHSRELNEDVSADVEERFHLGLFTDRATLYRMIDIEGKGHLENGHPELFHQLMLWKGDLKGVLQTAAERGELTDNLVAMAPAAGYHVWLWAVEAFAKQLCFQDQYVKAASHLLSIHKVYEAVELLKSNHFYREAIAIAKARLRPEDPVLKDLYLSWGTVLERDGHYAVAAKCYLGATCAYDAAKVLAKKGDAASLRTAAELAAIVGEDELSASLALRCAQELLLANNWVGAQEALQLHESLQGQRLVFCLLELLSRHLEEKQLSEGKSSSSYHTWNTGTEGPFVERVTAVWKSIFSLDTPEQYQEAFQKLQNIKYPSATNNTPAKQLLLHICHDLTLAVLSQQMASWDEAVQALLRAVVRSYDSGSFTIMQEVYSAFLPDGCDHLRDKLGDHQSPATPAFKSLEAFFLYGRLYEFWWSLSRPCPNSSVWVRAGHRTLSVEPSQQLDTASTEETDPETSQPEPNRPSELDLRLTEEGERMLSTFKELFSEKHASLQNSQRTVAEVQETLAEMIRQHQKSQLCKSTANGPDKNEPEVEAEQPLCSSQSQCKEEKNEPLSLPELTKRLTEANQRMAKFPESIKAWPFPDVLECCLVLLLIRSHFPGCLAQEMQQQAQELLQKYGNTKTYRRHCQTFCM
UniProt Q04446: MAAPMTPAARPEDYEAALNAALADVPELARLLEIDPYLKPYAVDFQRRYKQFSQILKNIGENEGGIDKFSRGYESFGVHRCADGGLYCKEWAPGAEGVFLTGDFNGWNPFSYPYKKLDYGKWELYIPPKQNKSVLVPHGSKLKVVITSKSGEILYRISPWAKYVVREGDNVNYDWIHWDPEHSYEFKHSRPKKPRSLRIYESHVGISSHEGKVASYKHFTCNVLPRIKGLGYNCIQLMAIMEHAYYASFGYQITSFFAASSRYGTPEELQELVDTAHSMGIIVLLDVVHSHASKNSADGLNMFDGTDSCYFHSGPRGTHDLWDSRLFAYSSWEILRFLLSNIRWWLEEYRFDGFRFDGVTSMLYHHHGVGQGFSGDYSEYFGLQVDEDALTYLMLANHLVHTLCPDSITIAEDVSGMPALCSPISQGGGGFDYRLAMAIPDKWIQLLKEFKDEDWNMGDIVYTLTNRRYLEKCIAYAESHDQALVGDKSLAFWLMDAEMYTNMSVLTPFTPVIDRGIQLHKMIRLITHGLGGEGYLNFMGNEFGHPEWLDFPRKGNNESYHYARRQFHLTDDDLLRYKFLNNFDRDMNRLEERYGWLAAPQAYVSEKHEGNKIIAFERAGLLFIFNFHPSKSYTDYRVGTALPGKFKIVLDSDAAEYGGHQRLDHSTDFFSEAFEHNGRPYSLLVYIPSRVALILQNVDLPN
UniProt Q9BWH2: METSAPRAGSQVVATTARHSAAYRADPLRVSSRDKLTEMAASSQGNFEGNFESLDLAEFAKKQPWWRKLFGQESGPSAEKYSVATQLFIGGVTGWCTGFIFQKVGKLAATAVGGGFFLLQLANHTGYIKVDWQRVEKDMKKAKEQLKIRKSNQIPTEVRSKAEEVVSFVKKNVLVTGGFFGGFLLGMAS
UniProt Q96C23: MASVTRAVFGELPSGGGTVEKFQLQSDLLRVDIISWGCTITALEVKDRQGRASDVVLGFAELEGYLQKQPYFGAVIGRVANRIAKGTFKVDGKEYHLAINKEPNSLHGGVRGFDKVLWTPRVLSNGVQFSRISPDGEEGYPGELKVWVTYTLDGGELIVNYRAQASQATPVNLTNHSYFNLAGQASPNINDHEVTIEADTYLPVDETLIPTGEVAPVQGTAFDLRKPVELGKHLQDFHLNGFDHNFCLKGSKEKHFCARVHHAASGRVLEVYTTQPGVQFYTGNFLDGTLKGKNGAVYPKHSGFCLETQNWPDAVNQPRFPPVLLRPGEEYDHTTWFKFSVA
UniProt O43524: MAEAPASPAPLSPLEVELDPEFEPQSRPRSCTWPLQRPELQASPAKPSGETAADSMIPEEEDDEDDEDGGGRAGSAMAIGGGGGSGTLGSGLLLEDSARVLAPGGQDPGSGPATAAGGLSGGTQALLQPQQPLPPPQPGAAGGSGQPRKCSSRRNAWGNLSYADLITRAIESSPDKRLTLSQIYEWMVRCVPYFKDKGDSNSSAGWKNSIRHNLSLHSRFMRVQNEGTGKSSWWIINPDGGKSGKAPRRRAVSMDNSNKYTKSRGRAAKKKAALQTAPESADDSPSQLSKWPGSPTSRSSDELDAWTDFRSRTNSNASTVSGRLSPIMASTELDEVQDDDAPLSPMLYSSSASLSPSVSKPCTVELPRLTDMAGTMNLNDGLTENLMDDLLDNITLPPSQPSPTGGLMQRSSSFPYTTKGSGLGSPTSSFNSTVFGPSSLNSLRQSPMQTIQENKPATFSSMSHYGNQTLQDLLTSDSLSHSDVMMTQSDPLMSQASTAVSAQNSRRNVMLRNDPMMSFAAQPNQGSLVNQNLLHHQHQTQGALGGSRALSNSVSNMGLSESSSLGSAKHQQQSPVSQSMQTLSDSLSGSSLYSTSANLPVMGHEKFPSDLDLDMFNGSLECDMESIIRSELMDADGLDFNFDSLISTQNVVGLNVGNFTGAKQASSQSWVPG
UniProt P31150: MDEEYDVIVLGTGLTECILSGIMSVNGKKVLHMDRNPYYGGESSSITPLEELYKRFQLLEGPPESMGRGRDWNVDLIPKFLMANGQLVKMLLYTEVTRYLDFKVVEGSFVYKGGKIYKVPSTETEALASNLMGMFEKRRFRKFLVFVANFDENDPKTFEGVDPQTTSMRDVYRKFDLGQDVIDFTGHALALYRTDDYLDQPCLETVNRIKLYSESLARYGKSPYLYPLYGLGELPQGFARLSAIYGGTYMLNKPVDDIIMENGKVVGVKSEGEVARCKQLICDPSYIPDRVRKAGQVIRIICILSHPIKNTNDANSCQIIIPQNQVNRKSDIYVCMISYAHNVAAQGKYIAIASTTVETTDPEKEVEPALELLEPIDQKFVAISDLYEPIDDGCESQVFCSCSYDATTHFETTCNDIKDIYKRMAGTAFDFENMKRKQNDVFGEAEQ
UniProt Q96CU9: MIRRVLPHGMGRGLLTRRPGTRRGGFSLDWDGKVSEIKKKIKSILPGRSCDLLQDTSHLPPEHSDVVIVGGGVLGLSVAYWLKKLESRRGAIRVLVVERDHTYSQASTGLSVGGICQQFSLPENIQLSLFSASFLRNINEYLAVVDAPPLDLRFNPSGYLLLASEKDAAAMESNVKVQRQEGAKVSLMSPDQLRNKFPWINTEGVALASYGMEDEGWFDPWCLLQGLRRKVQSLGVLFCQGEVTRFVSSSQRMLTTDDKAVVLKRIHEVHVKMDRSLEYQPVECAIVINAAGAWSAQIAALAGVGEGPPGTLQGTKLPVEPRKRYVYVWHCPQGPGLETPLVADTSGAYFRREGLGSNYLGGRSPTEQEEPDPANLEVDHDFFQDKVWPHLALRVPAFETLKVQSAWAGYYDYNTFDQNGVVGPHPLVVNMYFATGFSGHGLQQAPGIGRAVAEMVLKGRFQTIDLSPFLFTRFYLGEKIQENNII

Tests used:
Assay in all cases: log2 fold change, soluble protein after heating vs DMSO (PISA); higher = thermal stabilisation; K562 lysate, 10 uM; active = over 0.2 and 3.5 SD of the protein, either way, in both replicates (recomputed)
erlotinib = compound: C#Cc1cccc(Nc2ncnc3cc(OCCOC)c(OCCOC)cc23)c1 [erlotinib]
In short: (§1)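 Dounce homogenisation of K562 pellets in PBS pH 7.4 with 1 mM MgCl2 produced a crude extract, used at 1 mg/mL protein. Exposure to 10 μM compound lasted 30 min, and aliquots were then heated for 3 min across 48°C-58°C, pooled and brought to 0.5% NP-40 at 4°C. The supernatant after 21,000xg for 90 min was quantified by TMTpro 16plex LC-MS/MS with channel sums equalised. Duplicate values are given as log-two fold change in thermal stability relative to solvent controls.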

[1] = compound: C/C(=N\NC(=O)C1=CC(=CC=C1)S(=O)(=O)N2CCOCC2)/C3=C(C=CC(=C3)Cl)O
In short: as §1

[2] = compound: C1=CC(=CC=C1C2=NC3=C(N2)C=C(C=C3)C(=O)N)OC4=CC=C(C=C4)Cl
In short: as §1

[3] = compound: C1=CC2=C(C=CC(=C2)/C=C\3/C(=O)NC(=NCC4=CC=CS4)S3)N=C1
In short: as §1

[4] = compound: C1=CC2=NC=CN=C2C=C1/C=C/3\C(=O)NC(=O)S3
In short: as §1

[5] = compound: C1=CC=C(C=C1)C2=NC(=C(N2)C3=CC=NC=C3)C4=CC(=C(C=C4)Cl)O
In short: as §1

[6] = compound: C1=CC=C2C(=C1)C3=NNC4=CC=CC(=C43)C2=O
In short: as §1

[7] = compound: C1CCN(C1)C(=O)NC2=CC=CC(=C2)NC3=NC=C(C(=N3)NCCC4=CN=CN4)Br
In short: as §1

[8] = compound: C1CN(CCC1(CC2=CC=C(C=C2)Cl)N)C3=NC=NC4=C3C=CN4
In short: as §1

IRAK-1-4 Inhibitor I = compound: C1COCCN1CCN2C3=CC=CC=C3N=C2NC(=O)C4=CC(=CC=C4)[N+](=O)[O-] [IRAK-1-4 Inhibitor I]
In short: as §1

ibrutinib = compound: C=CC(=O)N1CCC[C@@H](n2nc(-c3ccc(Oc4ccccc4)cc3)c3c(N)ncnc32)C1 [ibrutinib]
In short: as §1

[9] = compound: CC(=O)c1cnc2ccc(-c3cc(Cl)c(O)c(Cl)c3)nc2c1N[C@H]1CC[C@H](CN(C)C)CC1
In short: as §1

ralimetinib = compound: CC(C)(C)Cn1c(N)nc2ccc(-c3[nH]c(C(C)(C)C)nc3-c3ccc(F)cc3)nc21 [ralimetinib]
In short: as §1

[10] = compound: CC(C)(O)CC(=O)NCCn1ccc2ncnc(Nc3ccc(Oc4cccc(C(F)(F)F)c4)c(Cl)c3)c21
In short: as §1

[11] = compound: CC(C)C1=C2N=C(C=C(N2N=C1)NCC3=CC=CC=C3)NCCCCCCN
In short: as §1

[12] = compound: CC1=C(C(CC(=O)N1)C2=CC=C(C=C2)C(F)(F)F)C(=O)NC3=C(C=C4C(=C3)C=NN4)F
In short: as §1

[13] = compound: CC1=C(C2=C(C=C1)C(=O)C3=CC=CC=C3N2CCCN)C
In short: as §1

[14] = compound: CC1=C(C=C(C=C1)NC(=O)C2=CC(=CC=C2)C(C)(C)C#N)NC3=CC4=C(C=C3)N=CN(C4=O)C
In short: as §1

[15] = compound: CC1=C(C=C(C=C1)NC(=O)C2=CC(=CC=C2)N(C)C)NC(=O)C3=CC=C(C=C3)O
In short: as §1

[16] = compound: CC1=CC=C(C=C1)SC2=C3C=C(SC3=CN=C2)C(=O)N
In short: as §1

Measured: log2 fold change

GBF1 (UniProt Q92538)
inactive: erlotinib 0.044 | [1] 0.043 | [2] -0.036 | [3] -0.009 | [4] 0.002 | [5] -0.008 | [6] -0.012 | [7] -0.007 | [8] 0.023 | IRAK-1-4 Inhibitor I 0.058 | ibrutinib 0.007 | [9] -0.001 | ralimetinib 0.051 | [10] -0.03 | [11] -0.011 | [12] -0.003 | [13] -0.011 | [14] -0.015 | [15] 0.017 | [16] 0.012

GEMIN4 (UniProt P57678)
inactive: erlotinib 0.023 | [1] -0.029 | [2] -0.036 | [3] 0.046 | [4] 0.038 | [5] -0.017 | [6] -0.032 | [7] -0.004 | [8] 0.018 | IRAK-1-4 Inhibitor I -0.023 | ibrutinib 0.003 | [9] -0.028 | ralimetinib 0.056 | [10] 0.001 | [11] 0.051 | [12] 0.007 | [13] -0.048 | [14] -0.005 | [15] 0.059 | [16] 0.011

GATAD2B (UniProt Q8WXI9)
inactive: erlotinib 0.01 | [1] 0.071 | [2] -0.037 | [3] 0.037 | [4] -0.058 | [5] 0.01 | [6] -0.055 | [7] 0.016 | [8] 0.033 | IRAK-1-4 Inhibitor I 0.02 | ibrutinib -0.058 | [9] 0.012 | ralimetinib 0.013 | [10] -0.008 | [11] 0.019 | [12] 0.049 | [13] 0.039 | [14] -0.033 | [15] 0.061 | [16] 0.001

GDPGP1 (UniProt Q6ZNW5)
inactive: erlotinib 0.061 | [1] 0.056 | [2] 0.011 | [3] 0.054 | [4] 0.022 | [5] -0.041 | [6] -0.003 | [7] -0.005 | [8] 0.011 | IRAK-1-4 Inhibitor I 0 | ibrutinib -0.042 | [9] 0.01 | ralimetinib -0.029 | [10] -0.013 | [11] -0.073 | [12] -0.012 | [13] 0.002 | [14] -0.103 | [15] 0.047 | [16] 0.007

GCN1 (UniProt Q92616)
inactive: erlotinib 0.048 | [1] 0.066 | [2] -0.086 | [3] 0.022 | [4] 0.054 | [5] 0.026 | [6] -0.016 | [7] -0.008 | [8] 0.003 | IRAK-1-4 Inhibitor I 0.008 | ibrutinib 0.016 | [9] 0.008 | ralimetinib 0.064 | [10] 0.028 | [11] -0.031 | [12] -0.016 | [13] -0.01 | [14] 0.008 | [15] 0.075 | [16] 0.026

GAN (UniProt Q9H2C0)
inactive: erlotinib 0.045 | [1] -0.01 | [2] 0.075 | [3] 0.008 | [4] -0.022 | [5] -0.004 | [6] -0.028 | [7] -0.031 | [8] 0.015 | IRAK-1-4 Inhibitor I 0.053 | ibrutinib -0.033 | [9] -0.007 | ralimetinib 0.013 | [10] -0.069 | [11] 0.004 | [12] -0.047 | [13] -0.04 | [14] 0.017 | [15] 0.001 | [16] -0.034

GEMIN5 (UniProt Q8TEQ6)
inactive: erlotinib -0.001 | [1] 0.004 | [2] -0.012 | [3] 0.015 | [4] 0.032 | [5] -0.006 | [6] -0.034 | [7] 0 | [8] -0.006 | IRAK-1-4 Inhibitor I -0.025 | ibrutinib 0.012 | [9] -0.01 | ralimetinib 0.03 | [10] -0.001 | [11] 0.016 | [12] -0.02 | [13] -0.026 | [14] 0.005 | [15] 0.014 | [16] 0.007

GBE1 (UniProt Q04446)
inactive: erlotinib -0.062 | [1] 0.09 | [2] 0.032 | [3] -0.093 | [4] -0.03 | [5] 0.027 | [6] -0.007 | [7] -0.012 | [8] -0.003 | IRAK-1-4 Inhibitor I -0.013 | ibrutinib 0.015 | [9] 0.02 | ralimetinib -0.013 | [10] -0.001 | [11] -0.001 | [12] -0.025 | [13] 0.049 | [14] -0.033 | [15] 0.047 | [16] -0.02

G6PD isoform 2 (UniProt P11413)
inactive: erlotinib 0.034 | [1] 0.05 | [2] 0.024 | [3] 0.016 | [4] 0.018 | [5] -0.001 | [6] -0.002 | [7] 0.006 | [8] 0.011 | IRAK-1-4 Inhibitor I 0.001 | ibrutinib -0.006 | [9] 0.001 | ralimetinib 0.023 | [10] 0.012 | [11] 0.018 | [12] -0.02 | [13] 0.045 | [14] -0.002 | [15] 0.024 | [16] 0.003

FUNDC2 (UniProt Q9BWH2)
inactive: erlotinib -0.011 | [1] -0.014 | [2] -0.027 | [3] -0.033 | [4] -0.011 | [5] 0.022 | [6] 0.003 | [7] 0.003 | [8] -0.008 | IRAK-1-4 Inhibitor I 0.021 | ibrutinib 0.005 | [9] -0.015 | ralimetinib 0.013 | [10] 0.003 | [11] -0.015 | [12] -0.025 | [13] -0.007 | [14] 0.056 | [15] 0.005 | [16] -0.042

GALNT12 (UniProt Q8IXK2)
inactive: erlotinib -0.07 | [1] 0.307 | [2] -0.014 | [3] -0.047 | [4] 0.015 | [5] -0.026 | [6] -0.214 | [7] -0.031 | [8] 0.024 | IRAK-1-4 Inhibitor I 0.001 | ibrutinib 0.003 | [9] 0.011 | ralimetinib 0.023 | [10] 0.016 | [11] 0.035 | [12] 0.02 | [13] -0.017 | [14] -0.052 | [15] -0.017 | [16] 0.016

GALM (UniProt Q96C23)
inactive: erlotinib -0.002 | [1] 0.022 | [2] -0.001 | [3] 0.017 | [4] -0.037 | [5] -0.025 | [6] -0.01 | [7] -0.009 | [8] 0.022 | IRAK-1-4 Inhibitor I 0.014 | ibrutinib -0.019 | [9] 0.003 | ralimetinib 0.008 | [10] -0.036 | [11] 0.005 | [12] 0 | [13] 0.021 | [14] 0.008 | [15] -0.023 | [16] 0.034

FOXO3 (UniProt O43524)
inactive: erlotinib -0.02 | [1] 0.083 | [2] 0.047 | [3] -0.02 | [4] -0.018 | [5] 0.024 | [6] -0.026 | [7] 0.01 | [8] 0.018 | IRAK-1-4 Inhibitor I 0.016 | ibrutinib -0.015 | [9] 0 | ralimetinib -0.011 | [10] 0.002 | [11] 0.092 | [12] 0.117 | [13] 0.008 | [14] 0.036 | [15] 0.01 | [16] -0.192

GDI1 (UniProt P31150)
inactive: erlotinib -0.019 | [1] 0.041 | [2] -0.004 | [3] -0.012 | [4] 0.012 | [5] 0.002 | [6] 0.014 | [7] 0 | [8] -0.009 | IRAK-1-4 Inhibitor I 0.011 | ibrutinib -0.025 | [9] 0 | ralimetinib 0.002 | [10] 0.005 | [11] -0.02 | [12] -0.021 | [13] -0.002 | [14] 0.004 | [15] -0.009 | [16] 0.01

FOXRED1 (UniProt Q96CU9)
inactive: erlotinib 0.017 | [1] 0.053 | [2] 0.004 | [3] 0.035 | [4] 0.007 | [5] -0.008 | [6] -0.096 | [7] -0.028 | [8] 0.013 | IRAK-1-4 Inhibitor I 0.001 | ibrutinib -0.032 | [9] -0.03 | ralimetinib 0.001 | [10] -0.004 | [11] -0.009 | [12] -0.024 | [13] -0.008 | [14] 0.002 | [15] 0.039 | [16] -0.027

GALNT5 (UniProt Q7Z7M9)
inactive: erlotinib -0.025 | [1] 0.038 | [2] -0.024 | [3] -0.012 | [4] -0.024 | [5] -0.065 | [6] -0.045 | [7] -0.021 | [8] 0.03 | IRAK-1-4 Inhibitor I 0.015 | ibrutinib 0.007 | [9] 0.003 | ralimetinib -0.028 | [10] -0.042 | [11] -0.017 | [12] 0.031 | [13] 0.038 | [14] -0.025 | [15] -0.003 | [16] -0.015

Three consecutive records from above, quoted:
GALM (UniProt Q96C23)
inactive: erlotinib -0.002 | [1] 0.022 | [2] -0.001 | [3] 0.017 | [4] -0.037 | [5] -0.025 | [6] -0.01 | [7] -0.009 | [8] 0.022 | IRAK-1-4 Inhibitor I 0.014 | ibrutinib -0.019 | [9] 0.003 | ralimetinib 0.008 | [10] -0.036 | [11] 0.005 | [12] 0 | [13] 0.021 | [14] 0.008 | [15] -0.023 | [16] 0.034

FOXO3 (UniProt O43524)
inactive: erlotinib -0.02 | [1] 0.083 | [2] 0.047 | [3] -0.02 | [4] -0.018 | [5] 0.024 | [6] -0.026 | [7] 0.01 | [8] 0.018 | IRAK-1-4 Inhibitor I 0.016 | ibrutinib -0.015 | [9] 0 | ralimetinib -0.011 | [10] 0.002 | [11] 0.092 | [12] 0.117 | [13] 0.008 | [14] 0.036 | [15] 0.01 | [16] -0.192

GDI1 (UniProt P31150)
inactive: erlotinib -0.019 | [1] 0.041 | [2] -0.004 | [3] -0.012 | [4] 0.012 | [5] 0.002 | [6] 0.014 | [7] 0 | [8] -0.009 | IRAK-1-4 Inhibitor I 0.011 | ibrutinib -0.025 | [9] 0 | ralimetinib 0.002 | [10] 0.005 | [11] -0.02 | [12] -0.021 | [13] -0.002 | [14] 0.004 | [15] -0.009 | [16] 0.01
